In PMC8636640:
Results are given in words; binding and its absence hold for the method and conditions named. Binding seen in cells or lysates may run through a third protein. These calls come from enrichment with a bait or labelling near it, and not all partners need be listed.

Sequences of proteins named here, by UniProt entry; tags and fusion partners are left off.
UniProt Q5T2D3: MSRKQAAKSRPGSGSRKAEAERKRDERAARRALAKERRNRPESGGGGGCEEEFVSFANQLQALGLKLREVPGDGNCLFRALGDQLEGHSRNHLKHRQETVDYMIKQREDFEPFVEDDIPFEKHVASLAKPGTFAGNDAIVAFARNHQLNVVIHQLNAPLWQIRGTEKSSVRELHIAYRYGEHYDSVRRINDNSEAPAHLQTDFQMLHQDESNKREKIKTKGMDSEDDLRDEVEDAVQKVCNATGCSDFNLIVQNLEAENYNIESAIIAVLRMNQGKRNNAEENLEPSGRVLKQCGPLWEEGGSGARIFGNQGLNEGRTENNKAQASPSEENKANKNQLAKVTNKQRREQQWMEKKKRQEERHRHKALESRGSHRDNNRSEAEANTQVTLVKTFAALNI
UniProt O00571: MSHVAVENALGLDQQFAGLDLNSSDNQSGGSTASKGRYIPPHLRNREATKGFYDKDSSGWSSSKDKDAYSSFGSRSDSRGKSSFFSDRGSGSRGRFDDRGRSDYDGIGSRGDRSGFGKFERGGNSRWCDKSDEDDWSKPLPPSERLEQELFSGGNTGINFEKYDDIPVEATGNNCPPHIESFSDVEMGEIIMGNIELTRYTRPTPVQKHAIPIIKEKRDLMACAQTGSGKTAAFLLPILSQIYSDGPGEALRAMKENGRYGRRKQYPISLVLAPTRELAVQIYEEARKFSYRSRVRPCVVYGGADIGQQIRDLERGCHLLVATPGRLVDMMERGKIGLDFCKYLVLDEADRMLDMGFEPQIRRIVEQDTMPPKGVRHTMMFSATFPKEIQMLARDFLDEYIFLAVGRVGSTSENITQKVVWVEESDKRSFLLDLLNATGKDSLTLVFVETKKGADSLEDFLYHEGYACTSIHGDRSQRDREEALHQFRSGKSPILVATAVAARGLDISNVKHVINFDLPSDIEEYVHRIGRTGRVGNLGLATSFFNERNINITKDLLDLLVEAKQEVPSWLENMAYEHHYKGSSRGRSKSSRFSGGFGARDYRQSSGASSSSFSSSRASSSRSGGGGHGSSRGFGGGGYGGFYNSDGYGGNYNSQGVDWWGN

Biological target: OTU domain-containing protein 3 (OTUD3), endogenous (human (endogenous in KYSE180)) (UniProt Q5T2D3)
Experiment: affinity purification with mass spectrometry; lysate (150 mM NaCl, 10 mM HEPES pH 7.4, 1% NP-40) precipitated with anti-OTUD3 antibody and protein G agarose overnight at 4 °C; SDS-PAGE, silver stain, MS; cell line not named

binding: binds
Substance: DDX3X, endogenous (from UniProt O00571 1-662)
